Measured values from article PMC4674748, “Identification of the Replication Origins from Cyanothece ATCC 51142 and Their Interactions with the DnaA Protein: From In Silico to In Vitro Studies”.
Weaker means in comparison with the reference protein, sequence or condition of that experiment. Protein sequences can lack the tags named with them.

Target: T1, His6-DnaA (IV) (Cyanothece ATCC 51142) (UniProt B1X0X6)
T1 sequence (looked up, limits assumed): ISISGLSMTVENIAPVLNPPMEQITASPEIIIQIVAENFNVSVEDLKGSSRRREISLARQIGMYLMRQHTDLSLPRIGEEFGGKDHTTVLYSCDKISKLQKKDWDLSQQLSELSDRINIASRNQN
Test: EMSA
Conditions: 5-100 nM protein, 3 mM ATP, poly(dI-dC), lower affinity than Cbox23, EMSA: 20 mM Hepes/KOH pH 8.0, 5 mM Mg acetate, 1 mM Na2EDTA, 4 mM DTT, 0.2% Triton X-100, 3 mM ATP, 5 mg/mL BSA, 37 C 30 min, recombinant protein, protein details: N-terminal His6 (pET-28a, BamHI/HindIII)

“ATCTTGAATGTTGATAAATTTAAGTATTTATCCTCAACATTG (double strand) [Lbox23 (2Box10B, 42 nt)]”: binds more weakly.
